Measured values reported in the supplement of paper PMC7666118.
The other results are listed elsewhere or left out.

The chains behind the UniProt entries cited, without tags or fusion partners. Where a name states a change or a piece, a line headed by the entry shows the natural chain unless it says otherwise.
UniProt Q9UFC0: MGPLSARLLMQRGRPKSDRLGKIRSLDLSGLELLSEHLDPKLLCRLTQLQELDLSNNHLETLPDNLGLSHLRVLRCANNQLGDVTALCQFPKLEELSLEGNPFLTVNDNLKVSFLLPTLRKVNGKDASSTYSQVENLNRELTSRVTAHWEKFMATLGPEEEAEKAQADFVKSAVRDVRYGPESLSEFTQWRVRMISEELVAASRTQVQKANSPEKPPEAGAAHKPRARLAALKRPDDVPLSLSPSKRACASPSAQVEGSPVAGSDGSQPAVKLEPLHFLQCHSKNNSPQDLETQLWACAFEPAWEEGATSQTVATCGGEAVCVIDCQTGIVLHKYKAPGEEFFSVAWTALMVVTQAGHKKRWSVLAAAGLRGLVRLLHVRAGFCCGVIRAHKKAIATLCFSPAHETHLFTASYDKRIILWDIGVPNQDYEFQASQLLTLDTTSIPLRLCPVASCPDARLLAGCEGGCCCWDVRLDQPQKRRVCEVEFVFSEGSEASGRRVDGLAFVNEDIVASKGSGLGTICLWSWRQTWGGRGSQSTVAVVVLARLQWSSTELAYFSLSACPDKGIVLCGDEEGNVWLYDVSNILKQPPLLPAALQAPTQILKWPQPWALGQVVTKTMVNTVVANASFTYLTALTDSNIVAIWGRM
UniProt P62310: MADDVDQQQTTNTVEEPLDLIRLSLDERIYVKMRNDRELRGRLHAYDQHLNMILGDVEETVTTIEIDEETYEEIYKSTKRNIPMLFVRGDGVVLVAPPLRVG
UniProt Q15058: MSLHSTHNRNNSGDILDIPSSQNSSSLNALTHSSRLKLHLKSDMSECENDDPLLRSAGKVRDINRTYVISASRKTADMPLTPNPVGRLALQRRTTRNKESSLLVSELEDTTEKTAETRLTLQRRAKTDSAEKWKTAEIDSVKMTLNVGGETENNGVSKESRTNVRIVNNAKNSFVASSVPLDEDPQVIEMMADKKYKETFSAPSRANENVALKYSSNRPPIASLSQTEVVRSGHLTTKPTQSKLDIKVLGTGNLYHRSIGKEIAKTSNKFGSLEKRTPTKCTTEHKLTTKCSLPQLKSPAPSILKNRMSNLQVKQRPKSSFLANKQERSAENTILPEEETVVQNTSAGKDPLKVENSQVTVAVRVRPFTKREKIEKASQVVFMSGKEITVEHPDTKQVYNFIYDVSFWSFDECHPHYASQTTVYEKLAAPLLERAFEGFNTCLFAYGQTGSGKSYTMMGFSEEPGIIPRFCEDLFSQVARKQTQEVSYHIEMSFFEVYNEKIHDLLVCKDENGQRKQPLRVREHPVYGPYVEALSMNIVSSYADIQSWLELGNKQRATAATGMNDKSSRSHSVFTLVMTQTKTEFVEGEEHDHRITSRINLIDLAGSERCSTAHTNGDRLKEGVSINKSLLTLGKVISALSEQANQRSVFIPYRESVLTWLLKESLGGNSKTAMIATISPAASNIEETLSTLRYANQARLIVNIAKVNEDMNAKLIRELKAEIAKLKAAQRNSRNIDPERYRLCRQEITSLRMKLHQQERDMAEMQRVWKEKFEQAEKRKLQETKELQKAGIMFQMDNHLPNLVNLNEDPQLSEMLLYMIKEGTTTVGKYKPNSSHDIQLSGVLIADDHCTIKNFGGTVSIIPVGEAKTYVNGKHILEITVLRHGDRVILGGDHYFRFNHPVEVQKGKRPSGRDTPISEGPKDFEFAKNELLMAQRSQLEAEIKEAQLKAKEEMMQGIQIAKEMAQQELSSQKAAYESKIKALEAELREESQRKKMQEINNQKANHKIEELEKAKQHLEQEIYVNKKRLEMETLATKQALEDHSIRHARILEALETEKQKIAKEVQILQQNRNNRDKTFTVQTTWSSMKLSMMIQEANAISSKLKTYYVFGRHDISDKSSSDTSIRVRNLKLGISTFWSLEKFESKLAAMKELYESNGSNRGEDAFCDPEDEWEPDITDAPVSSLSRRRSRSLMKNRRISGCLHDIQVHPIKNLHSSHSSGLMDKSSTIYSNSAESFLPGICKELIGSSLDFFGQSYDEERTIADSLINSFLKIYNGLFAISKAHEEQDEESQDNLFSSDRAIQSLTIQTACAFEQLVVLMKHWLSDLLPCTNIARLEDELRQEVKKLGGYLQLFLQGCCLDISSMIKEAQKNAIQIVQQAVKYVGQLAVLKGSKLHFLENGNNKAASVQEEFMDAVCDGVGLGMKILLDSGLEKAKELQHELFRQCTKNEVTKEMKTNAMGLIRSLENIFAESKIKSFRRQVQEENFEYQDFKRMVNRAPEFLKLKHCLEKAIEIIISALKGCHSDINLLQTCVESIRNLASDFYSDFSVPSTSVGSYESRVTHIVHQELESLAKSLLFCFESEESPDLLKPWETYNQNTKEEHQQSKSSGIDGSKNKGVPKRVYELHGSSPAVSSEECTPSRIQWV
UniProt Q9H008: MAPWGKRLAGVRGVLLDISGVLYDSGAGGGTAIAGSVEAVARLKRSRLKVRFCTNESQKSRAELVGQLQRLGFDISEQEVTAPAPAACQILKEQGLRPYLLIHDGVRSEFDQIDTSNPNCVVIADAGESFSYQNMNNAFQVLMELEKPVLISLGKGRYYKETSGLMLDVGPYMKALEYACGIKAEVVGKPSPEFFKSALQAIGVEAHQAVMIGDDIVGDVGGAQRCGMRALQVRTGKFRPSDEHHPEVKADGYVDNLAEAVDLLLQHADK
UniProt P33176: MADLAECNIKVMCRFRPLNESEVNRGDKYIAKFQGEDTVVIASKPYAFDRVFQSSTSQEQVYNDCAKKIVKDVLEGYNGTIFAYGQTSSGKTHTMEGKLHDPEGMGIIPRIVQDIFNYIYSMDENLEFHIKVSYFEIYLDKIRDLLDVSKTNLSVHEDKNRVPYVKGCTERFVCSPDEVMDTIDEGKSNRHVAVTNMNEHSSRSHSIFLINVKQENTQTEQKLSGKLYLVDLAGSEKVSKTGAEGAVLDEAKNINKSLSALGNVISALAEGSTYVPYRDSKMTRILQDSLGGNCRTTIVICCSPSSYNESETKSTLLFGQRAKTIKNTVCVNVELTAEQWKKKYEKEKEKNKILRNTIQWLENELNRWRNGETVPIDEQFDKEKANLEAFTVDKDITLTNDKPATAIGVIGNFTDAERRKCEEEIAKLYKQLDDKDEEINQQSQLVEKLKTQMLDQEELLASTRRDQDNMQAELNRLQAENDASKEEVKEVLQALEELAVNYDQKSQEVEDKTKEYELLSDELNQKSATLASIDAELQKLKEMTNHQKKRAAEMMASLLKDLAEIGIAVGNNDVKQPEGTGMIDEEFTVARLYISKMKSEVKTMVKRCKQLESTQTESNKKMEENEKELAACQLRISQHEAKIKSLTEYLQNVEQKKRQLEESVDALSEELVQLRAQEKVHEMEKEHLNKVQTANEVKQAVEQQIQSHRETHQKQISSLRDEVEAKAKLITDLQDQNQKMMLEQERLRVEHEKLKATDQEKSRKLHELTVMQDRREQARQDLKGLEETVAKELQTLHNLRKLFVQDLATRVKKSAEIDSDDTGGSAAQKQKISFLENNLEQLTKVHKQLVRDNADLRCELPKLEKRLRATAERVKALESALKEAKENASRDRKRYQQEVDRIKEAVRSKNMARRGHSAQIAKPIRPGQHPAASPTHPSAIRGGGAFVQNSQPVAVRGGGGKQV
UniProt O00505, whole entry: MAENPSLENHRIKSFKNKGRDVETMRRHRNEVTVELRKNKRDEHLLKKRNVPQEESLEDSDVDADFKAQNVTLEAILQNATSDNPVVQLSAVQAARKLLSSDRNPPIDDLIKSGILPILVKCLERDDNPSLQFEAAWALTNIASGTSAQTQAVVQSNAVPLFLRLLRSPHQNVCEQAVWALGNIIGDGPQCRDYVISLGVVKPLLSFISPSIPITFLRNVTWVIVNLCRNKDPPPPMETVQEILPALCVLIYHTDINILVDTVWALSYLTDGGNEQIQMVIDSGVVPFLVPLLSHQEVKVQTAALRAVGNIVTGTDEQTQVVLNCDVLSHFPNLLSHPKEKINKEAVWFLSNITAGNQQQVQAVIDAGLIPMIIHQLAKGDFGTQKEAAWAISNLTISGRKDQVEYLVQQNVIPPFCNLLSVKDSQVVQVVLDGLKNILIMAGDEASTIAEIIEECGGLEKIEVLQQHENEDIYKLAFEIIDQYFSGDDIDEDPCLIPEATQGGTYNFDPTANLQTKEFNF
UniProt Q96EK5: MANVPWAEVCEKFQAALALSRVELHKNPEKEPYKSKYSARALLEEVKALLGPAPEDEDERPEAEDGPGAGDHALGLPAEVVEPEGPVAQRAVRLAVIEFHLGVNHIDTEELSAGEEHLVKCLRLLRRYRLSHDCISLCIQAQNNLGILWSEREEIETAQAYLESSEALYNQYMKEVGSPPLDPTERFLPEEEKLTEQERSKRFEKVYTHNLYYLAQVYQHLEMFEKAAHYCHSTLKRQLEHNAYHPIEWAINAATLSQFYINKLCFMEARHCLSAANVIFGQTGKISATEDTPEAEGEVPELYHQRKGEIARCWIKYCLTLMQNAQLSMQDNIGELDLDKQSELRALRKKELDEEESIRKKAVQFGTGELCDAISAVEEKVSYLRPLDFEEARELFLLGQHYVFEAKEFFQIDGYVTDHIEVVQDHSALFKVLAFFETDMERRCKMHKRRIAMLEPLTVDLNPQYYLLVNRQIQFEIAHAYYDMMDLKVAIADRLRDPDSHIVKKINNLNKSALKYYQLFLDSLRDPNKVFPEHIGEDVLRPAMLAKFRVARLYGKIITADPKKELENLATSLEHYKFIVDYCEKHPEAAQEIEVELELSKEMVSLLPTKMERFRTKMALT

compound: COc1ccc(Cn2ccc3ccc(C(=O)NO)cc32)cc1; assay: dose-dependent thermal stabilisation call (2D-TPP, DLPTP, 10% FDR) (binary (1 = stabilised)); higher = stabilised by the compound; conditions: system: HL-60 intact cells; concentration range 0.04-10 µM

Question: How did the “dose-dependent thermal stabilisation call” value turn out when LRWD1 (UniProt Q9UFC0) was run?
Answer: inactive: 0

Question: Which “dose-dependent thermal stabilisation call” value does the source give for LOC642393 here?
Answer: inactive: 0

Question: With LSM3 (UniProt P62310) as the target, how does the “dose-dependent thermal stabilisation call” value read?
Answer: inactive: 0

Question: Which “dose-dependent thermal stabilisation call” value does the source give for LOC100132129 here?
Answer: inactive: 0

Question: KIF14 (UniProt Q15058) was tested. Which “dose-dependent thermal stabilisation call” value did it give?
Answer: inactive: 0

Question: How did the “dose-dependent thermal stabilisation call” value turn out when LOC643284 was run?
Answer: inactive: 0

Question: How did the “dose-dependent thermal stabilisation call” value turn out when LHPP (UniProt Q9H008) was run?
Answer: inactive: 0

Question: With KIF5B (UniProt P33176) as the target, how does the “dose-dependent thermal stabilisation call” value read?
Answer: inactive: 0

Question: For KPNA3 (UniProt O00505), which “dose-dependent thermal stabilisation call” value is on record?
Answer: inactive: 0

Question: For LSD1 (UniProt O60341), which “dose-dependent thermal stabilisation call” value is on record?
Answer: inactive: 0

Question: With KIAA1279 (UniProt Q96EK5) as the target, how does the “dose-dependent thermal stabilisation call” value read?
Answer: inactive: 0
